Measured values: PubChem BioAssay AID493014 (National Center for Advancing Translational Sciences (NCATS), 2011)
Out of some 340,000 compounds screened, about 170 (0.05%) were called active. Inconclusive results, whose numbers are uncertain, are shown with a selection of clear calls. Calls follow the shape of the dose curve; as a rule, active = well fitted inhibition curve with a large enough effect in the signal ratio, with a control signal flat (not every such curve was filed as active); inconclusive = small, poorly fitted or top-dose-only effect, or effect the other way, or a change in a side signal; inactive = flat fitted curve, though single readings scatter; the % refers to the signal ratio. Potencies beside an inconclusive call are fits to weak or partial responses and may not hold up.

Assay: qHTS Assay to Find Inhibitors of Chronic Active B-Cell Receptor Signaling;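 as to activity change, negative = inhibition: plate controls were basal doxycycline-induced cells for no effect and cells given 10 µM MG132 for full effect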
Details: ABC-DLBCL IkBa-CBG/CBR reporter, luminescence ratio (green luciferase fused to IkBa over red control in TMD8 lymphoma cells), 4 h; activity change, negative = inhibition: at 46.1 µM (top of the series)
Outline: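 Doxycycline induced both beetle luciferases in TMD8 lymphoma cells; IKK-driven degradation limits the IkappaBalpha-fused green signal, while red luminescence normalises for cell number and nonspecific effects. Compounds tested up to 46 uM, 4 hrs.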
Potency is read from the fitted curve at half-maximal effect.

Q: With `Cc1ccc(C)c(NC(=S)NCCc2c[nH]c3ccccc23)c1` as the molecule, how does the “activity change, negative = inhibition” value read?
A: inactive: 5.95%

Q: With `CC/C(=N\NC(=O)c1ccc2c(c1)OCO2)C12CC3CC(CC(C3)C1)C2` as the molecule, how does the Potency read?
A: inconclusive: 4.61 µM [falling, partial curve]

Q: Which activity change, negative = inhibition does the source give for `Cc1ccc2nc(SCC(=O)Nc3ccc(Br)cc3)nc(=O)n2c1` here?
A: inconclusive: 11.5%

Q: For `CCOC(=O)c1[nH]c(C)c(/C(O)=C2\C(=O)C(=O)N(CCCN(C)C)C2c2ccncc2)c1C` (centres undefined), which activity change, negative = inhibition is on record?
A: inconclusive: 0.488%

Q: For `O=C(CCCOc1ccccc1)Nc1ccccc1C(F)(F)F`, which “activity change, negative = inhibition” value is on record?
A: inactive: 7.12%

Q: With `CC(=O)N1CCC(N(C(=O)Nc2ccc(C)c(C)c2)C2CCCC2)CC1` as the molecule, how does the “activity change, negative = inhibition” value read?
A: inactive: 5.89%

Q: For `Oc1ccc(N=Nc2ccccc2)o1`, which activity change, negative = inhibition is on record?
A: inconclusive: -2.64%

Q: Which activity change, negative = inhibition does the source give for `Cc1c(CCC(=O)O)c(=O)oc2cc3occ(-c4ccccc4)c3cc12` here?
A: inconclusive: 1.48%

Q: Which Potency does the source give for `O=C(CCNc1n[nH]c(=O)[nH]c1=O)N/N=C/c1ccc(Cl)cc1` here?
A: inconclusive: 35.5 µM [falling, single point]

Q: For `Cc1cc(Nc2nnnn2-c2ccccc2)n(-c2ccc(Cl)cc2)n1`, which activity change, negative = inhibition is on record?
A: inconclusive: 1.18%

Q: With `O=C(NCc1ccc(F)cc1)C1CC(=O)N(Cc2ccco2)C1` (centres undefined) as the molecule, how does the activity change, negative = inhibition read?
A: inconclusive: -2.07%

Q: With `CCOc1ccccc1NC(=O)COc1cccc2c(=O)n(CCOC)ccc12` as the molecule, how does the Potency read?
A: inconclusive: 0.2 µM [falling, full curve, poor fit]

Q: With `Cc1cc(Br)c(Cl)cc1NC(=O)CN1C(=O)C2C3CC(c4ccccc4)C(C3)C2C1=O` (centres undefined) as the molecule, how does the activity change, negative = inhibition read?
A: inconclusive: 2.49%

Q: For `COc1cc(C(=O)ON=C2C3CC4CC(C3)CC2C4)cc(OC)c1OC`, which “activity change, negative = inhibition” value is on record?
A: inactive: 0.593%

Q: For `O=C1CCCc2nc3nc4ccccc4n3cc21`, which activity change, negative = inhibition is on record?
A: inconclusive: 1.52%

Q: For `COCCn1c(SCCCc2ccccc2)nc2c1c(=O)[nH]c(=O)n2C`, which activity change, negative = inhibition is on record?
A: inconclusive: 0.681%

Q: For `Cn1c(-c2ccc(N)cc2)nc2ccccc21`, which “activity change, negative = inhibition” value is on record?
A: inactive: 4.33%

Q: With `O=C(O)Cc1ccccc1C(=O)O` as the molecule, how does the “activity change, negative = inhibition” value read?
A: inactive: 2.16%

Q: With `O=C(NCCC1CCCCN1S(=O)(=O)c1ccc(F)cc1)C(=O)NCc1cccnc1` (centres undefined) as the molecule, how does the activity change, negative = inhibition read?
A: inconclusive: -1.55%

Q: With `Nc1cc(N)nc(SCC(=O)N2CCN(S(=O)(=O)c3ccccc3)CC2)n1` as the molecule, how does the “activity change, negative = inhibition” value read?
A: inactive: 8.63%

Q: With `CCN(CC)S(=O)(=O)c1ccc(NC(=O)c2ccc(Cl)nc2)cc1` as the molecule, how does the Potency read?
A: inconclusive: 1 µM [rising, full curve, poor fit]

Q: For `Cc1ccccc1Nc1nc(N)nc(CSc2nc3ccccc3s2)n1`, which “activity change, negative = inhibition” value is on record?
A: inactive: -8.45%

Q: Which Potency does the source give for `CC1CCC(NC(=O)c2ccc3c(c2)N(Cc2cccc(Cl)c2)C(=O)c2ccccc2S3=O)CC1` (centres undefined) here?
A: inconclusive: 0.794 µM [rising, full curve]

Q: Which activity change, negative = inhibition does the source give for `COc1ccccc1NC(=O)CCCNC(=O)Cn1cnc2sc(C)c(C)c2c1=O` here?
A: inconclusive: -23.7%
